# Measured data: PubChem BioAssay AID1224826 (NIAID, 2016)
# Assay: 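Regulators of Tlr4 signalling leading to Tnf-alpha expression in macrophages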 (primary screen)
# Cells: RAW264.7 G9 macrophages from mouse bearing reporters for p65 (GFP) and the Tnf promoter (mCherry)
# Reagent: siRNA pool against mouse genes, 100 nM
# Duration: 16 h of LPS stimulation, after 2 days of siRNA transfection
# Conditions: bacterial lipopolysaccharide (Salmonella minnesota R595), 10 ng/ml
# Measured: 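Imaged Tnf reporter mCherry in nuclei, minus background, normalised per plate to the median and expressed as robust z-scores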
# Direction: Tnf reporter robust z-score: higher = stronger Tnf promoter reporter signal after LPS; Tnf reporter intensity: higher = stronger Tnf promoter reporter signal
# Hit rule: 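Called active when robust z-score is at most -1.3, matching the median of the Tlr4 knock-down control, or over 3; control wells and wells with under 50 cells never active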
# Calls: active = Tnf reporter clearly lowered or raised; inactive = no clear change in Tnf reporter
# Here is one part, drawn at random, of about 17,000 reagents tested. About 1,110 of them (6.6%) count as active. 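Active means lowered or raised reporter signal; replicate intensities are raw and not normalised per plate.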 Entries without a mark were called inactive. Some reagents were tested in more than one well and are listed for each. No sequences are given here.
target,PubChem SID,Tnf reporter robust z-score,fewer than 50 cells in well,"Tnf reporter intensity, replicate 1","Tnf reporter intensity, replicate 2"
Krt16,SID315467687,-0.22,enough cells in well,229,134
Ifna6,SID315467390,-0.86,enough cells in well,177,102
Fads2,SID315471563,-1.93 (active),enough cells in well,88.3,49
Ms4a4c,SID315472094,-0.05,enough cells in well,209,112
Tigd5,SID315476506,-0.31,enough cells in well,133,159
Spta1,SID315469430,-0.41,enough cells in well,250,178
Clca4a,SID315476190,-0.79,enough cells in well,130,141
Ryr1,SID315469072,-0.13,enough cells in well,318,181
Deaf1,SID315471144,0.09,enough cells in well,208,180
Mapk7,SID315470242,0.36,enough cells in well,206,193
Tlr11,SID315479417,2.51,enough cells in well,214,174
Or10d4b,SID315479970,-0.68,enough cells in well,87.6,127
Btnl9,SID315479361,3.01 (active),enough cells in well,327,368
Phka2,SID315476872,1.36,enough cells in well,253,265
Arhgef12,SID315473852,-1.57 (active),enough cells in well,81.2,162
Cyp11a1,SID315466212,-0.03,enough cells in well,238,195
Vkorc1l1,SID315473832,1.92,enough cells in well,193,111
Ttl,SID315473886,0.3,enough cells in well,108,117
Mmp17,SID315470247,0.61,enough cells in well,309,256
Riok2,SID315472800,-0.14,enough cells in well,310,185
Lamb2,SID315467723,-0.69,enough cells in well,191,110
Cep19,SID315472763,0.71,enough cells in well,322,96.3
Mboat7,SID315475482,-0.26,enough cells in well,129,161
Evc,SID315471985,-0.47,enough cells in well,167,222
Zfyve19,SID315474420,-0.91,enough cells in well,91.6,86.6
Serpinb5,SID315469420,0.49,enough cells in well,397,189
Tmt1b,SID315474270,0.42,enough cells in well,308,85.7
Cd3e,SID315465859,1.61,enough cells in well,255,244
Cd3e,SID315465859,-0.71,enough cells in well,146,254
Acrv1,SID315465265,0.04,enough cells in well,173,224
1700013G24Rik,SID315473796,-0.49,enough cells in well,172,69.4
Slc16a10,SID315474557,-0.52,enough cells in well,81.1,86.1
Mme,SID315467939,0.53,enough cells in well,309,244
Nim1k,SID315479807,1.38,enough cells in well,332,193
Klhl20,SID315478510,-1.62 (active),enough cells in well,121,64.4
Or4f61,SID315480124,0.94,enough cells in well,217,173
Crebrf,SID315475453,-0.97,enough cells in well,127,90.4
Herpud2,SID315475705,,fewer than 50 cells per well; well left out of calls,136,103
Alg8,SID315481812,0.24,enough cells in well,166,256
Dusp7,SID315479272,0.98,enough cells in well,212,252
Ewsr1,SID315466587,0.05,enough cells in well,234,233
Cpm,SID315474087,-0.07,enough cells in well,143,167
Nfya,SID315468165,-0.91,enough cells in well,183,113
P2rx4,SID315468367,0.23,enough cells in well,259,197
Or7a37,SID315480649,1.06,enough cells in well,299,140
Frmd3,SID315479618,-0.94,enough cells in well,175,88.9
Cdkl3,SID315477784,,fewer than 50 cells per well; well left out of calls,104,115
Med22,SID315469536,-0.18,enough cells in well,98.6,89.2
Cd200r4,SID315479468,1.91,enough cells in well,365,252
Gnas,SID315466948,-1.35 (active),enough cells in well,71.3,241
Cops5,SID315470449,-0.81,enough cells in well,146,172
Prxl2a,SID315474082,0.72,enough cells in well,218,184
Large2,SID315478628,-0.63,enough cells in well,206,120
1110059E24Rik,SID315472290,0.32,enough cells in well,237,100
Itgbl1,SID315478254,-0.58,enough cells in well,213,106
Nacc1,SID315472661,-0.19,enough cells in well,126,165
Mpv17,SID315467976,-0.86,enough cells in well,140,86.6
Ago1,SID315479299,2.14,enough cells in well,284,223
Zbtb41,SID315478503,0.53,enough cells in well,207,228
Cdk5rap1,SID315472747,-0.09,enough cells in well,185,158
Nkx2-1,SID315469729,0.04,enough cells in well,174,175
Clec2g,SID315474136,0.08,enough cells in well,269,171
Myt1,SID315468088,-0.89,enough cells in well,169,156
Acss1,SID315473622,0.18,enough cells in well,215,203
Ggh,SID315466890,0.18,enough cells in well,311,215
Nsfl1c,SID315481845,,fewer than 50 cells per well; well left out of calls,77.3,56.1
Xrcc6,SID315466782,-0.23,enough cells in well,248,207
Hes3,SID315467182,-0.98,enough cells in well,246,54.3
Ces2e,SID315479180,-0.84,enough cells in well,145,119
Plekhb2,SID315478536,0.31,enough cells in well,131,156
Sltm,SID315472570,0.64,enough cells in well,210,183
Slc35b3,SID315476714,,fewer than 50 cells per well; well left out of calls,35.6,21.8
Crispld1,SID315475857,-1.36 (active),enough cells in well,47.9,151
Gjd2,SID315466910,0.73,enough cells in well,267,198
Hspa9,SID315467330,-0.96,enough cells in well,177,113
